According to US20220185876A1 (ATARGA, published 2022):
Changes are numbered by the printed parent chain. These are yes or no findings as the source states them, for the method shown. Some entries that bind do so weakly or less than the wild type.

Key:
human FGF23 [1] = target: T1, human FGF23 (human, UniProt Q9GZV9 25-251); assay: ELISA binding to human FGF23
T1 sequence: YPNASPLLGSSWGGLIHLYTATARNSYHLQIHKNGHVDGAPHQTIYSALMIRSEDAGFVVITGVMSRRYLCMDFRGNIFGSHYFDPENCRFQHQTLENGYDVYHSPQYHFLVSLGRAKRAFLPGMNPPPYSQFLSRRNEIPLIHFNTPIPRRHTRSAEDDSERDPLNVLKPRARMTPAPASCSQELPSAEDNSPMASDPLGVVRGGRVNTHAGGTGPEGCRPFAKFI

human FGF23 [2] = target: T1, human FGF23; assay: ELISA binding to human FGF23 (FIG. 2B)
human FGF23 [3] = target: T1, human FGF23; assay: ELISA binding to human FGF23 (FIG. 2A)

B1: Exc23 (antibody, V domains shown)
VH: EVQLVQSGAEVRKPGASVKVSCKASGYTFTNHYMHWVRQAPGQGLEWMGIINPISGSTSNAQKLQGRVTFTRDTSANTAYMELSGLIPEDTAIYYCARDIVDAFDFWGQGTLVTVSS
VL: DIQMTQSPSSLSASVGDRVTITCKASQGISSALVWYQQKPGKAPKLLIYDASSLQTGVPSRFSGSGSGTDFTFTISSLQPEDIATYYCQQFNDYFSFGPGTKLEIK
notes: Monoclonal anti-FGF23 antibody
- binding (human FGF23 [1]): binds
- binding (human FGF23 [2]): binds

B2: ExA28 (antibody, V domains shown)
VH: B1 VH
VL: B1 VL with D1A, K24R, Q55E, T56S, S96T
notes: as for B1
- binding (human FGF23 [1]): binds
- binding (human FGF23 [3]): binds

B3: ExA60 (antibody, V domains shown)
VH: B1 VH with T28S, I54N, F106Y
VL: B1 VL with D1A, K24R, Q55E, T56S, S96T
notes: as for B1
- binding (human FGF23 [1]): binds
- binding (human FGF23 [3]): binds

B4: Exc23.1 (antibody, V domains shown)
VH: B1 VH
VL: B1 VL with Q55E
notes: as for B1
- binding (human FGF23 [1]): binds
- binding (human FGF23 [2]): binds

B5: Exc23.2 (antibody, V domains shown)
VH: B1 VH
VL: B1 VL with T56S
notes: as for B1
- binding (human FGF23 [1]): binds
- binding (human FGF23 [2]): binds

B6: Exc23.3 (antibody, V domains shown)
VH: B1 VH
VL: B1 VL with S96T
notes: as for B1
- binding (human FGF23 [1]): binds
- binding (human FGF23 [2]): binds

B7: Exc23.4 (antibody, V domains shown)
VH: B1 VH
VL: B1 VL with K24R
notes: as for B1
- binding (human FGF23 [1]): binds
- binding (human FGF23 [2]): binds

B8: Exc23.5 (antibody, V domains shown)
VH: B1 VH
VL: B1 VL with D1A
notes: as for B1
- binding (human FGF23 [1]): binds
- binding (human FGF23 [2]): binds

B9: ExA11 (antibody, V domains shown)
VH: QVQLVQSGAELKKPGASVKVSCKASGYTFTNHYMHWVRQAPGQGLEWMGIINPISGSTTYAQKFQGRVTMTRDTSSSTAYMDLSRLTSDDTAVYYCARDIVDAFDFWGQGTTVTVSS
VL: AIQLTQSPSSLSASVGDRVTITCRASQGISSALVWYQQKPGQAPRLLIYDASSLESGIPARFSGSGSGTDFTLTISSLEPEDFAVYYCQQFNDYFTFGQGTKLEIK
notes: as for B1
- binding (human FGF23 [1]): binds
- binding (human FGF23 [3]): binds

B10: ExA35 (antibody, V domains shown)
VH: QVQLLESGAVLARPGTSVKISCKASGYTFTNHYMHWVKQRPGQGLEWIGIINPITGSSSNAQKFQGRVTITRDTSTSTVFMELSSLRSEDTAVYYCARDIVDAFDFWGQGTLVTVSS
VL: B9 VL
notes: as for B1
- binding (human FGF23 [1]): binds
- binding (human FGF23 [3]): binds

B11: ExC50 (antibody, V domains shown)
VH: B10 VH with T28S, I100L
VL: B9 VL with A1D, E55Q
notes: as for B1
- binding (human FGF23 [1]): binds
- binding (human FGF23 [3]): binds

B12: ExA43 (antibody, V domains shown)
VH: B1 VH with D99E
VL: B9 VL
notes: as for B1
- binding (human FGF23 [1]): binds
- binding (human FGF23 [3]): binds

B13: ExC17 (antibody, V domains shown)
VH: B1 VH
VL: B9 VL with A1D, E55Q, Y94L
notes: as for B1
- binding (human FGF23 [1]): binds
- binding (human FGF23 [3]): binds
